# From the supplement of paper PMC10849652
# The chains behind the UniProt entries cited, without tags or fusion partners. Where a name states a change or a piece, a line headed by the entry shows the natural chain unless it says otherwise.
# UniProt Q9GZN7, whole entry, looked up: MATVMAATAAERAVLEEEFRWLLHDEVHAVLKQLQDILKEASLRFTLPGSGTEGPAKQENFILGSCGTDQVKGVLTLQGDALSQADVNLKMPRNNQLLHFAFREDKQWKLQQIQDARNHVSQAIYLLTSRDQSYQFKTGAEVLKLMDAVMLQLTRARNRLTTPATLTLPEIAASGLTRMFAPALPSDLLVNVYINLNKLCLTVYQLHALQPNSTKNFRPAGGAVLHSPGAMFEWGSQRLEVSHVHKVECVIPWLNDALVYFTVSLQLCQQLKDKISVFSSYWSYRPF
# UniProt O76064: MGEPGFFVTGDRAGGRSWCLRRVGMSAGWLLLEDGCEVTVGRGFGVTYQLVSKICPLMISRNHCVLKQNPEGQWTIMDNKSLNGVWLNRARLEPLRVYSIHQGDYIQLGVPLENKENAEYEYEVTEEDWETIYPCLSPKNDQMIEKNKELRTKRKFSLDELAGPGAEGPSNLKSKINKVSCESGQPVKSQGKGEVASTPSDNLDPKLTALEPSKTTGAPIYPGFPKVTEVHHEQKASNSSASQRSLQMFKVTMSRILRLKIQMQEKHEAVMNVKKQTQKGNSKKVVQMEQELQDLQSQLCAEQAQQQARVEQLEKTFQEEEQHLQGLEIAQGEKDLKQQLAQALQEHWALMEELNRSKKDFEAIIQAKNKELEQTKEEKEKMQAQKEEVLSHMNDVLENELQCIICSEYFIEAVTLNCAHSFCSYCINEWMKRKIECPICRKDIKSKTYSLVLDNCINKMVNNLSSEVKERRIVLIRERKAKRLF
# UniProt Q5VTB9: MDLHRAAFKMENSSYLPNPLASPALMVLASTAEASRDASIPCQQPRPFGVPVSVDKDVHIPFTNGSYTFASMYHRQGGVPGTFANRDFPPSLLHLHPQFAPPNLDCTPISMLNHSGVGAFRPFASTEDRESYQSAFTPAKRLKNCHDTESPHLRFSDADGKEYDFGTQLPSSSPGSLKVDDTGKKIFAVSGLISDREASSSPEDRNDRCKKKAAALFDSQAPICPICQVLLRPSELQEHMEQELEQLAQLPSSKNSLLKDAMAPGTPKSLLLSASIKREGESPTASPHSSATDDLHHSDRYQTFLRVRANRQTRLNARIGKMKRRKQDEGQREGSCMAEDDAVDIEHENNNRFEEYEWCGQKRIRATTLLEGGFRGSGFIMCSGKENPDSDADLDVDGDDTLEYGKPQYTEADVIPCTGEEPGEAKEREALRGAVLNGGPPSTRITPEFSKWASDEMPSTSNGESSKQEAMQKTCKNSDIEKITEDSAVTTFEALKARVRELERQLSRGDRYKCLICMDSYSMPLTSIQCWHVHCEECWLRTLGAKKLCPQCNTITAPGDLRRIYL
# UniProt Q99942: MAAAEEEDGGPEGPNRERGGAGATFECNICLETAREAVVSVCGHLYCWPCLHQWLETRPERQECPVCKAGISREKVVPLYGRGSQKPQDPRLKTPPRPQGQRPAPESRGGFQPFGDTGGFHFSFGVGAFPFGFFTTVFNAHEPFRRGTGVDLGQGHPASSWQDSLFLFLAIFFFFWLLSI
# UniProt P78317: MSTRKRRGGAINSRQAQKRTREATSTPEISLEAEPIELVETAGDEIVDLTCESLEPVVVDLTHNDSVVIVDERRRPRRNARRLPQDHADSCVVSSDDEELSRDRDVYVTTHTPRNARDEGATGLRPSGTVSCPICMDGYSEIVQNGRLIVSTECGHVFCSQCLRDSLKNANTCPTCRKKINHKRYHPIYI
# UniProt Q8NCN4: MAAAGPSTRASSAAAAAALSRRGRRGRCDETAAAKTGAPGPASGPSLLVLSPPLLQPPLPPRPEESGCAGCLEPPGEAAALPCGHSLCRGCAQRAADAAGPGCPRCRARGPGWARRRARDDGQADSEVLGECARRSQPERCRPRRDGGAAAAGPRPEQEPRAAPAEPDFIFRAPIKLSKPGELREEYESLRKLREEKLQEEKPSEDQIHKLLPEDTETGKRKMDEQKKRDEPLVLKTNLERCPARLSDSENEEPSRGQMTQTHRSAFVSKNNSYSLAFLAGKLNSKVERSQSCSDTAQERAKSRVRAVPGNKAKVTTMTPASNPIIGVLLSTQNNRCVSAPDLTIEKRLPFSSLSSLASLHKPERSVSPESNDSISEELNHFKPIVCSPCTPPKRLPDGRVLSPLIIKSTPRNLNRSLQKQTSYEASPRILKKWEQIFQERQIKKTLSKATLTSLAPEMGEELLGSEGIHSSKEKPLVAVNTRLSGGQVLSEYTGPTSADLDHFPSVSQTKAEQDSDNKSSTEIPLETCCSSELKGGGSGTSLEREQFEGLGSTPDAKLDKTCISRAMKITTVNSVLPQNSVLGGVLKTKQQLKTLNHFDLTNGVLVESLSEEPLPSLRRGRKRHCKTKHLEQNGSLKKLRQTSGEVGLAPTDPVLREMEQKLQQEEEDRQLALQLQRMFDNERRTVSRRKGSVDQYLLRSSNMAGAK
# UniProt Q86UA6: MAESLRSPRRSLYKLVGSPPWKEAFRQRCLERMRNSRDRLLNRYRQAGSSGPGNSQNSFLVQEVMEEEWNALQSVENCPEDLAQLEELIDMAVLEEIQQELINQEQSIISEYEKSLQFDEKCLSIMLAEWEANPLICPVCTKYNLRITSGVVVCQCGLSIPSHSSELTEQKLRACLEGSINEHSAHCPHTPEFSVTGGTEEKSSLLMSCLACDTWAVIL
# UniProt Q6NUQ1: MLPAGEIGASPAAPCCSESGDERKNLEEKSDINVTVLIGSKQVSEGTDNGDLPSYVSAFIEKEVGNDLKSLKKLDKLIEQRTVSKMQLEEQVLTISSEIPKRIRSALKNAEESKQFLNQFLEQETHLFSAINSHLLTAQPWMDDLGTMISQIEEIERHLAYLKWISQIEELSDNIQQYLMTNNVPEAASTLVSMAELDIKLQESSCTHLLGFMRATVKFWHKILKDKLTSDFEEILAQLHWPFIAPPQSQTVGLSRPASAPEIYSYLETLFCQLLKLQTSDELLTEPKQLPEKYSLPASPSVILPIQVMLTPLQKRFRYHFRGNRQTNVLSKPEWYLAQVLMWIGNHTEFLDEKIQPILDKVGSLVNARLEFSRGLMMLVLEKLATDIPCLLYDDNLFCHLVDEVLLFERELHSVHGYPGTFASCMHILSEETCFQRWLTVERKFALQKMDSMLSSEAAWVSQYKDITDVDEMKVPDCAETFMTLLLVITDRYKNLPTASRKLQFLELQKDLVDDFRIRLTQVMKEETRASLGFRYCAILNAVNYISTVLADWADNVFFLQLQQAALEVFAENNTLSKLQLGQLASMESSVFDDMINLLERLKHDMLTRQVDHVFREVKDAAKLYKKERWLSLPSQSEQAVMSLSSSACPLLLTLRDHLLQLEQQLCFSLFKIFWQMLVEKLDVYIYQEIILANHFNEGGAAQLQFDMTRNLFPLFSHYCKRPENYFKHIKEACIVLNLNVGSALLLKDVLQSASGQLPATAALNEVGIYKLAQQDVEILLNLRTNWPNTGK
# UniProt Q6ZS11: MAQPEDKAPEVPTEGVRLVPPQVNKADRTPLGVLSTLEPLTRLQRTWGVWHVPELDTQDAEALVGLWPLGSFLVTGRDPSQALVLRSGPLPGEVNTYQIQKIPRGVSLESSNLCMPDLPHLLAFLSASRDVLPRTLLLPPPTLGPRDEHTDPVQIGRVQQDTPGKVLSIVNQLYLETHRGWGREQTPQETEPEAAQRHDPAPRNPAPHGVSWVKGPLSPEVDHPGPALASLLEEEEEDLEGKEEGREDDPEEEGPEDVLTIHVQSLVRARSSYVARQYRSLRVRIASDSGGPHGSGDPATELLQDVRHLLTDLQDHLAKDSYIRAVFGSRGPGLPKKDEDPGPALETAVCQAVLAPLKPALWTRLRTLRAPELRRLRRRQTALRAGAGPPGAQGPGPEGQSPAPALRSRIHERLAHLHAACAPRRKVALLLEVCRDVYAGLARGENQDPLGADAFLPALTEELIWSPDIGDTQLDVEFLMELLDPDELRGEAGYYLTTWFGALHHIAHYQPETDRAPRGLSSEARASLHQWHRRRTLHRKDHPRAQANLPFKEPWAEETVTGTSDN
# UniProt Q9H920: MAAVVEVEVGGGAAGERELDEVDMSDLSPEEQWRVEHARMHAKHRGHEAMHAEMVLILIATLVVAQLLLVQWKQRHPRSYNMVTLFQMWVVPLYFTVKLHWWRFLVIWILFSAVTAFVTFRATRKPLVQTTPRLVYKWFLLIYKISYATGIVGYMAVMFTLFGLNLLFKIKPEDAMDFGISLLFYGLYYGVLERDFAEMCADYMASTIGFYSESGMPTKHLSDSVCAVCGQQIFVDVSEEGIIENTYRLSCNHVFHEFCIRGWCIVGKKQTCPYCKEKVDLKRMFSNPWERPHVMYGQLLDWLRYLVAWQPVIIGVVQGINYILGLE
# UniProt Q9BXT8: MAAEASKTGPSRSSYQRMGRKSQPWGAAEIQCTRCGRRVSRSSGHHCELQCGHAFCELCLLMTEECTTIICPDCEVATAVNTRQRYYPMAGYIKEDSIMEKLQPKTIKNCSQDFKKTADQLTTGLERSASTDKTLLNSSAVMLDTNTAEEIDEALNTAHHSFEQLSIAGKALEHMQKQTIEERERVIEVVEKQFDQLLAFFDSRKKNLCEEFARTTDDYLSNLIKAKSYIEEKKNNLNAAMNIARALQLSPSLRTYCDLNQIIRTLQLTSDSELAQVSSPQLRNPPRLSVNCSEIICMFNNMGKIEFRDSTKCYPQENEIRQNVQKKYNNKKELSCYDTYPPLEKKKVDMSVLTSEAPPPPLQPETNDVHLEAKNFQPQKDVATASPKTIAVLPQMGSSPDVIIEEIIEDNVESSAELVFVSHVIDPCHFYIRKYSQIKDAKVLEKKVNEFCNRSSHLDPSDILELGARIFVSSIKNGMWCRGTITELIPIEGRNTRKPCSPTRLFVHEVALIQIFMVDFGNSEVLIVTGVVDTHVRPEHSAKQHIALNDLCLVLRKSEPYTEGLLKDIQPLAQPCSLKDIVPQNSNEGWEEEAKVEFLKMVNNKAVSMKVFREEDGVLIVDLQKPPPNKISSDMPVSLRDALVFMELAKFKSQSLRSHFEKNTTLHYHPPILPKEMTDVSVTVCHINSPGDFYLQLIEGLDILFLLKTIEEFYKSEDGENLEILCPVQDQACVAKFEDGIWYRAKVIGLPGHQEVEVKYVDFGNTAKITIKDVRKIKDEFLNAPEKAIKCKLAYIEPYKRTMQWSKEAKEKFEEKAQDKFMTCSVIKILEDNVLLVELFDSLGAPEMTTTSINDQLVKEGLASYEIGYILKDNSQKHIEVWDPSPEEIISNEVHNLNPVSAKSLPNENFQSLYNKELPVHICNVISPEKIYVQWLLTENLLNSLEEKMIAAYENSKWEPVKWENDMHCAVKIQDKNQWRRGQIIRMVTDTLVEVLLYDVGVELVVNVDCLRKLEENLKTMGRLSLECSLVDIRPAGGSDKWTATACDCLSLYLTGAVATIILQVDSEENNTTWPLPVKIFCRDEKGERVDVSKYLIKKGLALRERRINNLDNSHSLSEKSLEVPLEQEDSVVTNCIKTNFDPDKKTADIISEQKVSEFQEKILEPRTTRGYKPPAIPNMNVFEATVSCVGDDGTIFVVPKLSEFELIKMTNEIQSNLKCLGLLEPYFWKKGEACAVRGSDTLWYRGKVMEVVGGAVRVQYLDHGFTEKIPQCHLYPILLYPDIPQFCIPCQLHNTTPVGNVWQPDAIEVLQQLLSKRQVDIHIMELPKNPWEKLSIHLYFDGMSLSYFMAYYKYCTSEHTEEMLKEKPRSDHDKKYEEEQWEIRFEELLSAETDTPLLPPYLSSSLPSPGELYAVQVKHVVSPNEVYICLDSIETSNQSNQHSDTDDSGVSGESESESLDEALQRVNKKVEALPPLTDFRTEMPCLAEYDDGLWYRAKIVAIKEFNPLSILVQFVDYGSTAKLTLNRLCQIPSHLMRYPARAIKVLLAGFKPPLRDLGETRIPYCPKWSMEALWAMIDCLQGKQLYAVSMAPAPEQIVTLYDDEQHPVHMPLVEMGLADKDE
# UniProt P34096: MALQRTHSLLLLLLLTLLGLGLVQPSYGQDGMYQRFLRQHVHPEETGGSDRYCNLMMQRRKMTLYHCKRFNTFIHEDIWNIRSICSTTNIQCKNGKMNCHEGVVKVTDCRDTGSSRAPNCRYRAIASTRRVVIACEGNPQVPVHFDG
# UniProt Q5M7Z0: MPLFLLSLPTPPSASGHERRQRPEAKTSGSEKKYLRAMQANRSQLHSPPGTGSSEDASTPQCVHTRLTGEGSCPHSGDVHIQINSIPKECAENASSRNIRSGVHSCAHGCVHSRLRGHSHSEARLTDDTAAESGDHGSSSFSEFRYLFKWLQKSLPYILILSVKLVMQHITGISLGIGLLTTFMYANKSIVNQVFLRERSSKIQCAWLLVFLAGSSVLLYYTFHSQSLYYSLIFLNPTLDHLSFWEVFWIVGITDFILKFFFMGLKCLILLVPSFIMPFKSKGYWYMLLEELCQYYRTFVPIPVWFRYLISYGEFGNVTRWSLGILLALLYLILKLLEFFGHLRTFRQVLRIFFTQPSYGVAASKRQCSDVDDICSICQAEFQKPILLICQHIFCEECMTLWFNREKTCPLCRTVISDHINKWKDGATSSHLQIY
# The list shows a part of the results.
# Compound: C1=CC=C(C=C1)[C@H](COC2=CC3=C(C=C2)NC(=O)N3)NC(=O)C4=CC=CN(C4=O)CC5=CC(=C(C=C5)F)F
# Experiment: log2 fold change, soluble protein after heating vs DMSO (PISA); higher = thermal stabilisation; K562 lysate, 10 uM; active = over 0.2 and 3.5 SD of the protein, either way, in both replicates (recomputed)
# Method in brief: (§1)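 The values are log-two fold changes in thermal stability compared with solvent controls and come from duplicates. They were obtained by TMTpro 16plex LC-MS/MS, with channel sums equalised, on the supernatant after 21,000xg for 90 min. That supernatant came from crude K562 extract at 1 mg/mL protein treated with 10 μM compound for 30 min, heated for 3 min across 48°C-58°C, pooled and brought to 0.5% NP-40 at 4°C.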
row,Target,log2 fold change
1,ROGDI (UniProt Q9GZN7),inactive: -0.238
2,RNF8 (UniProt O76064),inactive: -0.152
3,RNF220 (UniProt Q5VTB9),inactive: 0.021
4,RNF24 isoform 2 (UniProt Q9Y225),inactive: -0.219
5,RNF167 (UniProt Q9H6Y7),inactive: -0.026
6,RNF5 (UniProt Q99942),inactive: -0.03
7,RPL22L1 (UniProt Q6P5R6),inactive: 0.117
8,RNF4 (UniProt P78317),inactive: 0.092
9,RNF169 (UniProt Q8NCN4),inactive: 0.201
10,RPAIN isoform 8 (UniProt Q86UA6),inactive: 0.02
11,RINT1 (UniProt Q6NUQ1),inactive: -0.021
12,"RPL10, A0A087WV22",inactive: 0.068
13,RILPL2 (UniProt Q969X0),inactive: -0.231
14,RINL (UniProt Q6ZS11),inactive: -0.008
15,RPL35A (UniProt P18077),inactive: -0.003
16,RNF121 (UniProt Q9H920),inactive: -0.109
17,RNF185 (UniProt Q96GF1),inactive: -0.116
18,RNF17 (UniProt Q9BXT8),inactive: -0.241

# Compound: CC1=C(SC2=C1C(=N[C@H](C3=NN=C(N32)C)CC(=O)N)C4=CC=C(C=C4)Cl)C
# Experiment: as above
# Method in brief: as §1
row,Target,log2 fold change
1,ROGDI (UniProt Q9GZN7),inactive: 0.082
2,RNF8 (UniProt O76064),inactive: -0.083
3,RNF220 (UniProt Q5VTB9),inactive: 0.047
4,RNF24 isoform 2 (UniProt Q9Y225),inactive: 0.037
5,RNF167 (UniProt Q9H6Y7),inactive: 0.002
6,RNF5 (UniProt Q99942),inactive: -0.008
7,RPL22L1 (UniProt Q6P5R6),inactive: 0
8,RNF4 (UniProt P78317),inactive: 0.076
9,RNF169 (UniProt Q8NCN4),inactive: -0.239
10,RPAIN isoform 8 (UniProt Q86UA6),inactive: -0.033
11,RINT1 (UniProt Q6NUQ1),inactive: -0.008
12,"RPL10, A0A087WV22",inactive: -0.035
13,RILPL2 (UniProt Q969X0),inactive: -0.012
14,RINL (UniProt Q6ZS11),inactive: 0.016
15,RPL35A (UniProt P18077),inactive: -0.029
16,RNF121 (UniProt Q9H920),inactive: -0.032
17,RNF185 (UniProt Q96GF1),inactive: -0.075
18,RNF17 (UniProt Q9BXT8),active: 1

# Compound: CC1=C2C(=CC=C1)N=C(N(C2=O)C3=CC=CC=C3C)CN4C=NC5=C(N=CN=C54)N
# Experiment: as above
# Method in brief: as §1
row,Target,log2 fold change
1,RNASE4 (UniProt P34096),inactive: 0.031
2,RP9 (UniProt Q8TA86),inactive: 0.005
3,RNF139 (UniProt Q8WU17),inactive: -0.029
4,RNF220 (UniProt Q5VTB9),inactive: -0.036
5,RMI2 (UniProt Q96E14),inactive: -0.18
6,RMND5B (UniProt Q96G75),inactive: -0.095
7,RHOU (UniProt Q7L0Q8),inactive: 0.065
8,RHOXF2B (UniProt P0C7M4),inactive: 0.032
9,ROMO1 (UniProt P60602),inactive: -0.021
10,RNPEPL1 (UniProt Q9HAU8),inactive: -0.334
11,RNF4 (UniProt P78317),inactive: 0.059
12,RPAIN isoform 8 (UniProt Q86UA6),inactive: -0.096
13,RINT1 (UniProt Q6NUQ1),inactive: 0.019
14,RHOQ (UniProt P17081),inactive: -0.137
15,RPL35A (UniProt P18077),inactive: 0.022
16,RIOX1 (UniProt Q9H6W3),inactive: -0.037
17,RNF115 (UniProt Q9Y4L5),inactive: 0.17
18,RNF2 (UniProt Q99496),inactive: 0.03

# Compound: Cc1sc2c(c1C)C(c1ccc(Cl)cc1)=N[C@@H](CC(=O)OC(C)(C)C)c1nnc(C)n1-2
# Experiment: as above
# Method in brief: as §1
row,Target,log2 fold change
1,RNFT1 (UniProt Q5M7Z0),inactive: 0.069
2,RNASE4 (UniProt P34096),inactive: -0.022
3,ROGDI (UniProt Q9GZN7),inactive: 0.005
4,RP9 (UniProt Q8TA86),inactive: -0.005
5,RNF8 (UniProt O76064),inactive: 0.095
6,RNF220 (UniProt Q5VTB9),inactive: -0.001
7,RNPC3 (UniProt Q96LT9),inactive: -0.029
8,RPL32 (UniProt D3YTI8),inactive: -0.031
9,RMI2 (UniProt Q96E14),inactive: 0.079
10,RNF167 (UniProt Q9H6Y7),inactive: 0.072
11,RNF5 (UniProt Q99942),inactive: 0.069
12,RHOU (UniProt Q7L0Q8),inactive: -0.1
13,RPL22L1 (UniProt Q6P5R6),inactive: 0.932
14,RHOXF2B (UniProt P0C7M4),inactive: 0.029
15,ROMO1 (UniProt P60602),inactive: 0.014
16,RNPEPL1 (UniProt Q9HAU8),inactive: -0.024
17,RNF169 (UniProt Q8NCN4),inactive: -0.025
18,RNF41 (UniProt Q9H4P4),inactive: -0.04
19,RLF (UniProt Q13129),inactive: -0.199
20,RINT1 (UniProt Q6NUQ1),inactive: -0.008
21,"RPL10, A0A087WV22",inactive: -0.557
22,RINL (UniProt Q6ZS11),inactive: -0.125
23,RPL35A (UniProt P18077),inactive: 0.096
24,RIOX1 (UniProt Q9H6W3),inactive: 0.099
25,RNF10 isoform 2 (UniProt Q8N5U6),inactive: -0.109
26,RNF2 (UniProt Q99496),inactive: -0.091
27,RNF121 (UniProt Q9H920),inactive: 0.09
28,RNF17 (UniProt Q9BXT8),inactive: 0.129
